Results on 1 molecule are retold here after PMC6345808, “Molecular structure and function of myelin protein P0 in membrane stacking” (Scientific Reports, 2019).

In test [1] the target is cytoplasmic extension of human myelin protein zero (P0ct), Cys153Leu (human) (UniProt P25189). As to the kind of experiment: SEC-MALS; P0ct, 250 µg injected on Superdex 75 pg 10/300GL, 20 mM HEPES, 300 mM NaCl, pH 7.5, 0.4 ml/min; both purified.
Test [2] has the same target. As to the kind of experiment: SAXS; P0ct at 1.1–4.2 mg ml^−1 in SEC buffer (20 mM HEPES, 300 mM NaCl, 1% glycerol, pH 7.5), EMBL P12 beamline; both purified.

These are yes or no findings as the source states them, for the method shown.

B1: cytoplasmic extension of human myelin protein zero (P0ct), Cys153Leu (domain or fragment, UniProt P25189 180-248)
chain: GRYLWLRRQAALQRRLSAMEKGKLHKPGKDASKRGRQTPVLYAMLDHSRSTKAVSEKKAKGLGESRKDKK
In the case of B1, the values for the binding entry in test [1] and in test [2] were “no binding (tested: 250-µg sample injected)” and “no binding (tested: 1.1–4.2 mg ml^−1)”, respectively.
